From the supplement of paper PMC3334620
Over roughly 33,000 sequences, “E-score (-0.5 to 0.5)” has its median near -0.016; the highest 2% begin near 0.3. Some of the results follow.

These sequences were tested against T1, Yer184c (UniProt P39961) (assay: PBM E-score (8-mer binding enrichment) (E-score (-0.5 to 0.5)); higher = stronger / more preferred TF binding). Conditions: protein concentration: 100 nM; construct: GST-full length.
T1 sequence: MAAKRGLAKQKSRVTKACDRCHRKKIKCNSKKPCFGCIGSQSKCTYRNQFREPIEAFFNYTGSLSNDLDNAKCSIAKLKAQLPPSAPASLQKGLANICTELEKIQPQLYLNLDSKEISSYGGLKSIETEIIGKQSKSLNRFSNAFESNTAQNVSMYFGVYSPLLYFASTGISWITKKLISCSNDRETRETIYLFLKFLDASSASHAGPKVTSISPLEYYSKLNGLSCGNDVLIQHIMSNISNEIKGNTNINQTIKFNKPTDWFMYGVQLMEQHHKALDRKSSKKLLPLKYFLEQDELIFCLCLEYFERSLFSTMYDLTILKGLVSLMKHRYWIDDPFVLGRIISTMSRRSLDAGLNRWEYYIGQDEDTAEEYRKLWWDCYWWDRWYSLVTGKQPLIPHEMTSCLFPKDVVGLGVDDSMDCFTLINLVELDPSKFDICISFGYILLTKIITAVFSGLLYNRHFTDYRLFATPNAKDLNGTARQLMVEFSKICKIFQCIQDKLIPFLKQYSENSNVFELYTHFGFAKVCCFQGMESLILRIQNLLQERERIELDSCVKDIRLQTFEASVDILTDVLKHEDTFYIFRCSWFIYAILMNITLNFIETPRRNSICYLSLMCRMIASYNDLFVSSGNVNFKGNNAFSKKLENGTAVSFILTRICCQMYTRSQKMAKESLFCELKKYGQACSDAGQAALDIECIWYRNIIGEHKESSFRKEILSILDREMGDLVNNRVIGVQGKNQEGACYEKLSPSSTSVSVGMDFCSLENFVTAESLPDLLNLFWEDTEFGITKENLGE
Summary of the method: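 For each ungapped eight-base word taken together with its reverse complement, the Universal PBM Analysis Suite assigned an E-score. Binding data came from GST-tagged yeast transcription factors, applied at about 100-200 nM, on universal all-10-mer Agilent arrays made double-stranded by primer extension. Fluorescent anti-GST marked bound protein, and scans were normalised with masliner.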
ATTTTTTC was tested, and the “PBM E-score” value was 0.256.
With ATATACTG the “PBM E-score” value was 0.174.
With AGGCAAGC the “PBM E-score” value was -0.227.
For CCAAGTAG, the “PBM E-score” value was -0.15.
In the case of CCTGGTCG, the “PBM E-score” value was -0.0872.
With CGTCCCTA the “PBM E-score” value was -0.11.
For CTGGCTGC, the “PBM E-score” value was -0.198.
With CATGATAC the “PBM E-score” value was 0.176.
CGAGATTC was tested, and the “PBM E-score” value was 0.0732.
For CGAATGAA, the “PBM E-score” value was 0.0657.
CTTTTGCC was tested, and the “PBM E-score” value was 0.028.
With ATTTCCTG the “PBM E-score” value was 0.186.
For GAGACCCC, the “PBM E-score” value was -0.26.
GGACAGCA was tested, and the “PBM E-score” value was 0.115.
For AGGGGGGG, the “PBM E-score” value was -0.474.
For AGACTTTG, the “PBM E-score” value was -0.0649.
In the case of ACTGCTAG, the “PBM E-score” value was -0.186.
AATTTTGA was tested, and the “PBM E-score” value was 0.209.
In the case of GATCAGTA, the “PBM E-score” value was 0.155.
CCAAGGAA was tested, and the “PBM E-score” value was -0.0117.
With CCCGTCGA the “PBM E-score” value was -0.0148.
For GATAAAAA, the “PBM E-score” value was 0.29.
With AAAGTGTC the “PBM E-score” value was -0.0981.
With ACTATGGA the “PBM E-score” value was -0.144.
For AGAGCTCA, the “PBM E-score” value was -0.142.
In the case of ACCTCATA, the “PBM E-score” value was -0.0137.
With ATGTGTAG the “PBM E-score” value was -0.0726.
With CTCGTGTA the “PBM E-score” value was 0.0138.
GCGATCGC was tested, and the “PBM E-score” value was -0.0844.
In the case of GGAGGTAA, the “PBM E-score” value was -0.0289.
In the case of CAGGTGAC, the “PBM E-score” value was -0.205.
CGGTCCTC was tested, and the “PBM E-score” value was -0.0287.
In the case of CGAAACTA, the “PBM E-score” value was 0.0737.
In the case of GGTCATGA, the “PBM E-score” value was 0.00444.
In the case of AGTGCAAT, the “PBM E-score” value was -0.102.
In the case of CCTCGCGC, the “PBM E-score” value was -0.122.
With CCTAGACA the “PBM E-score” value was -0.14.
With CTCATAAA the “PBM E-score” value was 0.192.
For ATACCTGA, the “PBM E-score” value was 0.0252.
In the case of CGATTTGC, the “PBM E-score” value was 0.123.
With ATCTAGAG the “PBM E-score” value was -0.151.
For ATCTATGA, the “PBM E-score” value was 0.0171.
AGGCCCCG was tested, and the “PBM E-score” value was -0.217.
In the case of GGGACAGA, the “PBM E-score” value was -0.19.
GATTACAA was tested, and the “PBM E-score” value was 0.169.
For ATTGGTCG, the “PBM E-score” value was 0.04.
For CGCGACGC, the “PBM E-score” value was -0.105.
In the case of TCAAGCGA, the “PBM E-score” value was -0.215.
In the case of CCGGCGCA, the “PBM E-score” value was 0.277.
For CAAGACAC, the “PBM E-score” value was 0.0985.
CGTACTCA was tested, and the “PBM E-score” value was -0.0942.
For GGCTTGAC, the “PBM E-score” value was -0.00879.
For ACAATGAA, the “PBM E-score” value was 0.159.
For CGCTGTGA, the “PBM E-score” value was -0.0939.
In the case of AGCCGGTA, the “PBM E-score” value was 0.306.
For CCCCCCAG, the “PBM E-score” value was -0.449.
For ATTAATTG, the “PBM E-score” value was 0.197.
With ACGTTCCC the “PBM E-score” value was -0.194.
In the case of CACACCTC, the “PBM E-score” value was -0.168.
In the case of CCAATAGC, the “PBM E-score” value was -0.192.
CTGGACAG was tested, and the “PBM E-score” value was -0.0251.
With ATGGGAAG the “PBM E-score” value was -0.202.
In the case of CGTCCAAA, the “PBM E-score” value was 0.0987.
In the case of AACTTGTG, the “PBM E-score” value was 0.095.
AGAATCTA was tested, and the “PBM E-score” value was 0.0901.
With AAACGATA the “PBM E-score” value was 0.136.
For ATTTTAGG, the “PBM E-score” value was 0.105.
With ATAGCGTA the “PBM E-score” value was -0.0169.
For CTTGCAAG, the “PBM E-score” value was 0.246.
In the case of TACCCTGA, the “PBM E-score” value was -0.212.
For ATATGTTA, the “PBM E-score” value was -0.0145.
With CTGACGAC the “PBM E-score” value was -0.135.
For ACAGCATC, the “PBM E-score” value was -0.133.
AATGAGGA was tested, and the “PBM E-score” value was -0.235.
With ACACGCCG the “PBM E-score” value was 0.181.
For AAGTACTG, the “PBM E-score” value was 0.039.
With GTGCCCGA the “PBM E-score” value was -0.0178.
For AAACACAA, the “PBM E-score” value was 0.188.
AGACGCGA was tested, and the “PBM E-score” value was 0.0138.
In the case of CTTGCGTA, the “PBM E-score” value was -0.095.
ACATCCCG was tested, and the “PBM E-score” value was 0.213.
In the case of AACGGGTA, the “PBM E-score” value was 0.149.
CGGAGGAC was tested, and the “PBM E-score” value was 0.0152.
AAAAGTAG was tested, and the “PBM E-score” value was 0.0569.
CACCGACA was tested, and the “PBM E-score” value was 0.0307.
AGAGTGAG was tested, and the “PBM E-score” value was -0.128.
For ACTTGTCA, the “PBM E-score” value was 0.0708.
In the case of AGCAAGAC, the “PBM E-score” value was -0.0598.
With AGCACAAG the “PBM E-score” value was -0.0401.
In the case of CGCGCCCG, the “PBM E-score” value was -0.00599.
With ACGCTCAA the “PBM E-score” value was -0.0415.
For CGCAAATC, the “PBM E-score” value was -0.0243.
For AAGCCTGT, the “PBM E-score” value was -0.0651.
For CGCCGCAC, the “PBM E-score” value was -0.0179.
